Test results published in publication PMC10685657.
These are yes or no findings as the source states them, for the method shown. In cells and extracts the contact can be indirect. Some entries that bind do so weakly or less than the wild type.

Amino acid sequences for entries named in this document (tags omitted). A change or cut given only in a name is not applied to a line headed by its entry. Chains listed by the source or under a name are the forms on record and can include a tag or linker. Residues count along the entry.
UniProt Q15910: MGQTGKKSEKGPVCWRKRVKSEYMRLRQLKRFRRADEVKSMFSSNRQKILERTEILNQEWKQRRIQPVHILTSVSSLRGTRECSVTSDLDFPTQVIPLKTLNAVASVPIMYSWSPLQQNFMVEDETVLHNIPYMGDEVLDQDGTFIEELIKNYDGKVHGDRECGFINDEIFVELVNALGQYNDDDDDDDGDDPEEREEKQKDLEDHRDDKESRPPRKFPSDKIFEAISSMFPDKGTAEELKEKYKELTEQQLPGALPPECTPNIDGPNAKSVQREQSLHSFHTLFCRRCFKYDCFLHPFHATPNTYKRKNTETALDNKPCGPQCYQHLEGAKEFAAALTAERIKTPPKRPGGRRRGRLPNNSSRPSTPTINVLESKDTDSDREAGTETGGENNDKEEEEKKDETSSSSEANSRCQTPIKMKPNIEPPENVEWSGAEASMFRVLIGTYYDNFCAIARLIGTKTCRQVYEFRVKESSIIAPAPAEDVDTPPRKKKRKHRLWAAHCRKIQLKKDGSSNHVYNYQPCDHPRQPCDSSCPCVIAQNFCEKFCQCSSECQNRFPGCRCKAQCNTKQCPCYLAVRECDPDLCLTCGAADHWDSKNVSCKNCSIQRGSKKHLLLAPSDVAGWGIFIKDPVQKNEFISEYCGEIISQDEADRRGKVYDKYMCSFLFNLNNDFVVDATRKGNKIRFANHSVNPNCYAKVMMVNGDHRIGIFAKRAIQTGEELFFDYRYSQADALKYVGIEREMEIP
UniProt Q15022: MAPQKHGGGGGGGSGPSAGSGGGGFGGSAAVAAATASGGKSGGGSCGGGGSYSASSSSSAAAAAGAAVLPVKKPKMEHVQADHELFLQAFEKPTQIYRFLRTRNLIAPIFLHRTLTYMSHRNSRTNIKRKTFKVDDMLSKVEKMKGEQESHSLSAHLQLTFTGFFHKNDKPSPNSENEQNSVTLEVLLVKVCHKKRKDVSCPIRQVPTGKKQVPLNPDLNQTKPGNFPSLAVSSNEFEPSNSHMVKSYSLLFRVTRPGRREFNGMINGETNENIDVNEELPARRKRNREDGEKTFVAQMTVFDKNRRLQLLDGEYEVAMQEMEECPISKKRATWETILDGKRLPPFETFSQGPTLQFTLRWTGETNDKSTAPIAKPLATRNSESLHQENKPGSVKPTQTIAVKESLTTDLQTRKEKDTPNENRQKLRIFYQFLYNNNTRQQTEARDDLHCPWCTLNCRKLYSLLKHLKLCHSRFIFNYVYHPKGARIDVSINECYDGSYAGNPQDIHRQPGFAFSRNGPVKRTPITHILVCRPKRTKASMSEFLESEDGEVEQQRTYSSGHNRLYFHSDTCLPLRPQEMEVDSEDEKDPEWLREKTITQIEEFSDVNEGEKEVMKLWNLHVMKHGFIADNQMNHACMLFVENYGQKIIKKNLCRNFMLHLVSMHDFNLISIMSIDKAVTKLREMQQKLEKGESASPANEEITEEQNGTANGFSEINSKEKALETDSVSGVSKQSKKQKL
TRIP12 (human (endogenous in YT, NK92)) (Q14669, form named): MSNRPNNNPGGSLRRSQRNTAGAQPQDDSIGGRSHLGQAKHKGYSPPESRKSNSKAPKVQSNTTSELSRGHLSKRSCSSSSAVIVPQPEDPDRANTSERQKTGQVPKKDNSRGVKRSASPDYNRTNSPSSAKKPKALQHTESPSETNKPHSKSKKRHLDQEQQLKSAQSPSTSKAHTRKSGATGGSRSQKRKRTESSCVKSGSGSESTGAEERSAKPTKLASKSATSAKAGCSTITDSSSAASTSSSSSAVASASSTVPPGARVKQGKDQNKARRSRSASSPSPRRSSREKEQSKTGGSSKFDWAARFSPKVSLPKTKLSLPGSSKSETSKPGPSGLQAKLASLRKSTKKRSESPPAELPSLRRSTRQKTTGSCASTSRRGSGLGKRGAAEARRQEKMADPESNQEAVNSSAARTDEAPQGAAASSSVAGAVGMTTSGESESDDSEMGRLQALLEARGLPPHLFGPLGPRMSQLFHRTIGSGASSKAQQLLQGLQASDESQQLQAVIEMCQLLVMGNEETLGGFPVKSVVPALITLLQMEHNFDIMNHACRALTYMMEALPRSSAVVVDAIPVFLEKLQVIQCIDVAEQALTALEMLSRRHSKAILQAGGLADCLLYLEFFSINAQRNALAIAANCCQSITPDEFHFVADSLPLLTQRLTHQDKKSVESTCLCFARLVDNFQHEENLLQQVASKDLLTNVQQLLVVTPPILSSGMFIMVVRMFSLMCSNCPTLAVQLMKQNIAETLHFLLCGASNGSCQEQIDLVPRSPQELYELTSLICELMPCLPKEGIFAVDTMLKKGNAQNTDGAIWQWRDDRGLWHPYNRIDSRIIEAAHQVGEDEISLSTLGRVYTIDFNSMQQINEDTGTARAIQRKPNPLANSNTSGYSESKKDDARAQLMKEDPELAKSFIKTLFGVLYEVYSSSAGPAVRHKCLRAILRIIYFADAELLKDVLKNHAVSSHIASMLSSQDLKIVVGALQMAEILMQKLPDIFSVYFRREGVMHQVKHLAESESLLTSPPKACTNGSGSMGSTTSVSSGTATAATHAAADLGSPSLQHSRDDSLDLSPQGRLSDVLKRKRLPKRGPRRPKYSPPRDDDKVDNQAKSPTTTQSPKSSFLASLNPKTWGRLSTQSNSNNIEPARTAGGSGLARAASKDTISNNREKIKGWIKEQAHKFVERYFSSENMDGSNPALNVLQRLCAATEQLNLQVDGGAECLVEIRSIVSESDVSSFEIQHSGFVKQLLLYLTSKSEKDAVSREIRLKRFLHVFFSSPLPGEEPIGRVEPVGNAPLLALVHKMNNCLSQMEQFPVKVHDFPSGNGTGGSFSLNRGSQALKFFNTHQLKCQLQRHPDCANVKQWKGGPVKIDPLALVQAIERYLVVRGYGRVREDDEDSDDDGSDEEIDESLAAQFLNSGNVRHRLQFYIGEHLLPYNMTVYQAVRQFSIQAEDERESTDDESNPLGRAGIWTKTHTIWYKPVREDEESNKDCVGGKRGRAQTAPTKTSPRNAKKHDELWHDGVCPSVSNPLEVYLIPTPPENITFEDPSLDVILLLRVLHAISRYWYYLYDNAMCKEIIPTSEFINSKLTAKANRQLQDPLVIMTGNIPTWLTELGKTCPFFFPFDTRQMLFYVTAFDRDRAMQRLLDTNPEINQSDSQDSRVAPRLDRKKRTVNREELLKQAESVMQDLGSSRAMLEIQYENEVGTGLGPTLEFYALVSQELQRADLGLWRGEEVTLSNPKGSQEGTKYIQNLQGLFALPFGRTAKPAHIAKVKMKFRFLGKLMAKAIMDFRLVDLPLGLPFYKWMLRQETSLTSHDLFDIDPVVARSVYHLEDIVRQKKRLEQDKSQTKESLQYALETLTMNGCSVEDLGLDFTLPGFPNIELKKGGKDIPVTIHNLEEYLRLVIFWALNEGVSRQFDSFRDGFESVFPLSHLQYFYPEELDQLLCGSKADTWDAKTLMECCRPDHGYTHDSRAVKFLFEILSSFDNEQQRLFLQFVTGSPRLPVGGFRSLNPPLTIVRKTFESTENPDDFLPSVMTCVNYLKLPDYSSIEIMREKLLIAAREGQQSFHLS
UniProt P10809, residues 27-573: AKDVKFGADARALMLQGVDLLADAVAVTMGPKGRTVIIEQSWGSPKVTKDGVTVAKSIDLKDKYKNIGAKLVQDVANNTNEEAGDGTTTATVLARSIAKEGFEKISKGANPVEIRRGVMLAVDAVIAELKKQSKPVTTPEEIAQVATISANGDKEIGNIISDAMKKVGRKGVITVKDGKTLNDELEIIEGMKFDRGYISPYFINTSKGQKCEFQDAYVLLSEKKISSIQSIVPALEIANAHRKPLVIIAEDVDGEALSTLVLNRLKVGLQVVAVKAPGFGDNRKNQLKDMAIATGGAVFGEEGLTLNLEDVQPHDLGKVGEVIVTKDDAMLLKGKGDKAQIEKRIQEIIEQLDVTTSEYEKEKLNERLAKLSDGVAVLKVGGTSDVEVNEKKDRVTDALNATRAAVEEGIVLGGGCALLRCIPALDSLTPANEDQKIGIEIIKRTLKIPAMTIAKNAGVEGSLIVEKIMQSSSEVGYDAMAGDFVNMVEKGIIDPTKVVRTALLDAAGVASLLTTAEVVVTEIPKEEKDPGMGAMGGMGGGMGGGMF

What was measured:
GFP-EZH2 wildtype = GFP-EZH2 wildtype (UniProt Q15910); assay: co-IP; HEK293T cells harvested 48 h after transfection (EZH2 or its mutants; with or without TRIP12 overexpression); RIPA lysis with PMSF, sonication; antibody overnight at 4 °C, protein A/G beads; immunoblot
GFP-EZH2 T487A = GFP-EZH2 T487A (UniProt Q15910); assay: as above
GFP-EZH2 K634R = GFP-EZH2 K634R (UniProt Q15910); assay: as above
[1] = target: EZH2 (human (endogenous in YT, NK92, NKYS)) (UniProt Q15910); assay: co-IP; endogenous proteins in ENKTL cell lines (YT, NK92, NKYS); RIPA lysis with PMSF, sonication; antibody overnight at 4 °C, protein A/G beads 1 h at 4 °C; immunoblot
[2] = target: SUZ12 (human (endogenous in YT, NKYS, HEK293T)) (UniProt Q15022); assay: as above
[3] = target: TRIP12 (human (endogenous in YT, NK92)) (UniProt Q14669); assay: as above

| binding (GFP-EZH2 wildtype) | binding (GFP-EZH2 T487A) | binding (GFP-EZH2 K634R) | binding [1] | binding [2] | binding [3] | Substance |
| --- | --- | --- | --- | --- | --- | --- |
| binds | binds | binds | – | – | – | HSP60 (in HEK293T cells) (from UniProt P10809 27-573) |
| – | – | – | binds | binds | binds | HSP60 (from UniProt P10809 27-573) |
